We go through one molecule from patent publication US12319694B2, “Heterocyclic nitrogen-containing purine derivatives, pharmaceutical preparations containing these derivatives and their use in neuroprotection” (UNIVERZITA PALACKEHO, priority 2019, dated 2025).

The test concerns SH-SY5Y human neuroblastoma cell line. In words: Oxidative stress measurement (dihydroethidium, superoxide) in SH-SY5Y, salsolinol-induced model of PD. Format: cell-based. The settings on record: 10 μM compound with SAL 500 μM, 6 h, read-out: Oxidative stress (% of control). As to the method: The assay was performed in 96-well microplate with 7000 cells/well. Next day, SH-SY5Y underwent differentiation protocol for 48 h see above. Treatment procedure remained the same as in previous section (Cell treatment and viability/cytotoxicity assays). Additionally, oxidative stress (OS) inducers such as 6-hydroxydopamine (6-OHDA) and glutamate (Glu) alone were used as […]. Negative controls determined threshold of excessive OS. […] After 30 minutes, DHE was read at 500 nm/580 nm (excitation/emission). DHE is cell permeable dye which is selective toward superoxide radical detection.

`COc1cc2c(cc1OC)C(=O)C(CC1CCN(Cc3ccccc3)CC1)C2` (stereo not shown) [Donepezil, reference compound]: the activity at 10 µM worked out at 120%.
